Data reported in patent publication US9615580B2, “Fused heterocyclic compound and use thereof for pest control” (Sumitomo Chemical Company, Limited, priority 2012, dated 2017).
Some results were stated once for a whole list of compounds, not compound by compound.

What follows are compounds tested on Aphis gossypii (assay: Test Example 2: soil drench of cucumber seedling, then inoculation with Aphis gossypii). Conditions: 500 ppm, 5 ml drench at foot of cucumber seedling, inoculation after 7 days, counted 6 days later.
Assay type: in vivo
`CCS(=O)(=O)c1cccnc1-c1nc2cc([S+]([O-])C(F)(F)F)cnc2o1` (stereo not drawn) [present compound 1-4, 2-(3-ethylsulfonylpyridin-2-yl)-6-(trifluoromethylsulfinyl)oxazolo[5,4-b]pyridine] was tested, and the control value was no less than 90%. With `CCS(=O)(=O)c1cccnc1-c1nc2cc(S(=O)(=O)C(F)(F)F)cnc2o1` [present compound 1-5, 2-(3-ethylsulfonylpyridin-2-yl)-6-(trifluoromethylsulfonyl)oxazolo[5,4-b]pyridine] the control value was no less than 90%. `CCS(=O)(=O)c1cccnc1-c1nc2cc(SC(F)(F)F)ccc2o1` [present compound 1-8, 2-(3-ethylsulfonylpyridin-2-yl)-5-(trifluoromethylsulfanyl)benzoxazole] showed a control value of no less than 90%. `CCS(=O)(=O)c1cccnc1-c1nc2cc([S+]([O-])C(F)(F)F)ccc2o1` (stereo not drawn) [present compound 1-9, 2-(3-ethylsulfonylpyridin-2-yl)-5-(trifluoromethylsulfinyl)benzoxazole] showed a control value of no less than 90%. `CCS(=O)(=O)c1cccnc1-c1nc2cc(S(=O)(=O)C(F)(F)F)ccc2o1` [present compound 1-10, 2-(3-ethylsulfonylpyridin-2-yl)-5-(trifluoromethylsulfonyl)benzoxazole] was tested, and the control value was no less than 90%. Work on `CCS(=O)(=O)c1ccc[n+]([O-])c1-c1nc2cc(S(=O)(=O)C(F)(F)F)ccc2o1` [present compound 1-76] yielded a control value of no less than 90%.
